Results as given in the supplement of paper PMC12823440, “Inhibitors supercharge kinase turnover through native proteolytic circuits” (Nature, 2025).
Counter-ions that a name gives are not always drawn. The list shows a part of the results. Hit calls seldom repeat between salt and free forms of one compound.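 In K562 cells expressing nanoluciferase-fused kinases, luminescence was recorded at 4 h intervals between 2 and 18 h, normalized as percent of control with DMSO at 100% and a positive control at 0%. A significant (2 sigma) signal drop marks a time point as decreased. The authors' rule for a hit is not shown and takes in more than the number of time points.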

Chains of the proteins cited; added tags and fusions are not shown. Lines headed by an entry give the natural chain unless they say otherwise; changes in a name come on top.
UniProt Q15208: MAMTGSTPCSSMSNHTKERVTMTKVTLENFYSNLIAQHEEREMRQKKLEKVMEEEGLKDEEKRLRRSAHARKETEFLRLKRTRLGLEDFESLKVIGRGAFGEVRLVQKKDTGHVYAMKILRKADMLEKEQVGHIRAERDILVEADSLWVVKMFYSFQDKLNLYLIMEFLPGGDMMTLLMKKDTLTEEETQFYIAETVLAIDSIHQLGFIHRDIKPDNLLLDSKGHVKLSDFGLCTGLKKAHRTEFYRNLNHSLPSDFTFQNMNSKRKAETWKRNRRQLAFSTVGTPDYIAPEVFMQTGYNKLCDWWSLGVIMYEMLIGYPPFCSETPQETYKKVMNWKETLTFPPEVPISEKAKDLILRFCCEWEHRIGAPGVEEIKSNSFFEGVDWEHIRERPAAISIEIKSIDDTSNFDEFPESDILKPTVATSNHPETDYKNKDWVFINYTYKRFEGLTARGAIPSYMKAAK
UniProt P42680: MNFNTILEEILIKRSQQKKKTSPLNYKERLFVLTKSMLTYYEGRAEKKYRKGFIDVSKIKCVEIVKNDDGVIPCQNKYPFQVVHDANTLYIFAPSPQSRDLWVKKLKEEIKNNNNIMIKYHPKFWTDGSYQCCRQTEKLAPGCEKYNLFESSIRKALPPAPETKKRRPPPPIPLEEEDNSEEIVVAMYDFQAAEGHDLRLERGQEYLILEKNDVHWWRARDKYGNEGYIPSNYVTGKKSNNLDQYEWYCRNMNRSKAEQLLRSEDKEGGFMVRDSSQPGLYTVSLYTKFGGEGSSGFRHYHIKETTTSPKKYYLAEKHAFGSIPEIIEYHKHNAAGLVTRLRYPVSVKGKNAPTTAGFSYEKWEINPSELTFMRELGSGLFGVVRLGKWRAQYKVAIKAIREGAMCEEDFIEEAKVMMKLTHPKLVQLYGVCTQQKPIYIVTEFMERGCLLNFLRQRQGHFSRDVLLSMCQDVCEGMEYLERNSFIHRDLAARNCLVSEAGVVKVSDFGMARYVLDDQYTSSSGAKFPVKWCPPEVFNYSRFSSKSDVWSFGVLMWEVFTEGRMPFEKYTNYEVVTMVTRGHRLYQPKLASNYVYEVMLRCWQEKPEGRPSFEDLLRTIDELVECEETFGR
UniProt P29597: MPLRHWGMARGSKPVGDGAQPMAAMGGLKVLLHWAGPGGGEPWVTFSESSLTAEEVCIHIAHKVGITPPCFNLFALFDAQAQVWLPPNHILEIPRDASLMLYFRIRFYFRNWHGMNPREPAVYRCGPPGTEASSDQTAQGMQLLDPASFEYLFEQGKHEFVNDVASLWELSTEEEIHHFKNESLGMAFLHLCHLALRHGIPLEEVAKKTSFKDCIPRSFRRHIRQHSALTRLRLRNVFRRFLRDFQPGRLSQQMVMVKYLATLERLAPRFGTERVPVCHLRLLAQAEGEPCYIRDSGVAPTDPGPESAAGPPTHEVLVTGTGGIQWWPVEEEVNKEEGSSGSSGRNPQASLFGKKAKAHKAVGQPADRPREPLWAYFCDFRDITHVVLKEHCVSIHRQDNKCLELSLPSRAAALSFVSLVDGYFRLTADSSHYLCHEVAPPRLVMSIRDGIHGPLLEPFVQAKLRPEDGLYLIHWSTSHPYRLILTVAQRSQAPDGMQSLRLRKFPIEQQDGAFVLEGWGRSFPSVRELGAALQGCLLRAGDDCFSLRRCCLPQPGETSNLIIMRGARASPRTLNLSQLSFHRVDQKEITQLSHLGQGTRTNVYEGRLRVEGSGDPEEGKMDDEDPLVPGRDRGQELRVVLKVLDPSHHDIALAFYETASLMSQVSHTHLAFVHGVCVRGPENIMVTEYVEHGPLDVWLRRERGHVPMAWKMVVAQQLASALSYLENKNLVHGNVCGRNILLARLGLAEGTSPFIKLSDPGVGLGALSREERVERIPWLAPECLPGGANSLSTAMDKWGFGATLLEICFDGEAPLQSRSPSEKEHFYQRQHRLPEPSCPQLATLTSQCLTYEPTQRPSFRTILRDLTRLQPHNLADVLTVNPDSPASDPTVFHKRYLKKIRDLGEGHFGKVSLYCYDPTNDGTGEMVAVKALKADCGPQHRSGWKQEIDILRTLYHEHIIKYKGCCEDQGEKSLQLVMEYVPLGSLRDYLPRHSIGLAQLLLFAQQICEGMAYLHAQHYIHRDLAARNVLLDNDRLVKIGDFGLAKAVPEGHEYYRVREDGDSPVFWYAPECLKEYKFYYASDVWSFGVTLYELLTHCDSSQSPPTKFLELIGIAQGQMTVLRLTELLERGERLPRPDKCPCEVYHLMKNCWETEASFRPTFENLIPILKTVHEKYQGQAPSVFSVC
UniProt Q6PHR2: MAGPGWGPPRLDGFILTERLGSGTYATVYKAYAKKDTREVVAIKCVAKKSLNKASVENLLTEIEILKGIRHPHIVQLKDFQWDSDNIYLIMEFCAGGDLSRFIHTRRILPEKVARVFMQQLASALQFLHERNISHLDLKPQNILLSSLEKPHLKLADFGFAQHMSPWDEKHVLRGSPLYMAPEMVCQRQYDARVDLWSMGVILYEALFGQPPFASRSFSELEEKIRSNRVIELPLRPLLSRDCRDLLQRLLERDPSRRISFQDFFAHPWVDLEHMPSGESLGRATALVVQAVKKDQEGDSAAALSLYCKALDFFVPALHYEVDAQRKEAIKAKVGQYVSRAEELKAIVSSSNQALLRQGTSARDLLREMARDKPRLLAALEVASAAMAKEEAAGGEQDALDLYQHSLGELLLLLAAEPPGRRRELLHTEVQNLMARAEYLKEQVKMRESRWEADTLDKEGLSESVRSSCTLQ
UniProt P07947, whole entry, looked up: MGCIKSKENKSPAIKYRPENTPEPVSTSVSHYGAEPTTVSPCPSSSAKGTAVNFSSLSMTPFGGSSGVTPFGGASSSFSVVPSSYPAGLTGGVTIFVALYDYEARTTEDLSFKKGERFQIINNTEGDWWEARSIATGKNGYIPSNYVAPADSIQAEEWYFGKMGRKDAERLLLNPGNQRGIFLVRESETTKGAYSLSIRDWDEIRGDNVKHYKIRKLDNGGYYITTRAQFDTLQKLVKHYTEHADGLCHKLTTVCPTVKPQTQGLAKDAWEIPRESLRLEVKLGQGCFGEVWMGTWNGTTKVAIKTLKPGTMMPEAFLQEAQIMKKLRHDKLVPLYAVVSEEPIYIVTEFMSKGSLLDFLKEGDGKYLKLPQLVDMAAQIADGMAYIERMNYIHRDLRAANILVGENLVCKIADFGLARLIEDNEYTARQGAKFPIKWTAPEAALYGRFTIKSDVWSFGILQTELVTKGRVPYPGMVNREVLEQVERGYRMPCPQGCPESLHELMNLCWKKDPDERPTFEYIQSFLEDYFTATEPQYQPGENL
UniProt P43403: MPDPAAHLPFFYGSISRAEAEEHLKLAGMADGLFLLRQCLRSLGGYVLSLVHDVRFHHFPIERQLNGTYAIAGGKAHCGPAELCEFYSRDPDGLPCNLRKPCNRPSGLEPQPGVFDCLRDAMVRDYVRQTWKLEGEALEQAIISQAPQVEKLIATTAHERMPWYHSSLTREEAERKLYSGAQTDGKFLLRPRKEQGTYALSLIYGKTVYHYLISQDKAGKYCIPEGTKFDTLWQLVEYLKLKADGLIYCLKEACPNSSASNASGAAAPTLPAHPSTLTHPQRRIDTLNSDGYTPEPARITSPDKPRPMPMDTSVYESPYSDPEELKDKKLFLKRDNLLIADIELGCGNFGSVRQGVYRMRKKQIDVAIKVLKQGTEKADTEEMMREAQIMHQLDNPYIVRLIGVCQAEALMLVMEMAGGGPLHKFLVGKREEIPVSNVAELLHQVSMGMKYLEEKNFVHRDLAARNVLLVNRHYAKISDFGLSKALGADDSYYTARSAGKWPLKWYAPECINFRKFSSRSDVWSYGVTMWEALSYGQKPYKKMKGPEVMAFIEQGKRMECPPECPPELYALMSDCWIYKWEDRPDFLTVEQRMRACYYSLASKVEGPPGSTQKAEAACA
UniProt P00519, whole entry: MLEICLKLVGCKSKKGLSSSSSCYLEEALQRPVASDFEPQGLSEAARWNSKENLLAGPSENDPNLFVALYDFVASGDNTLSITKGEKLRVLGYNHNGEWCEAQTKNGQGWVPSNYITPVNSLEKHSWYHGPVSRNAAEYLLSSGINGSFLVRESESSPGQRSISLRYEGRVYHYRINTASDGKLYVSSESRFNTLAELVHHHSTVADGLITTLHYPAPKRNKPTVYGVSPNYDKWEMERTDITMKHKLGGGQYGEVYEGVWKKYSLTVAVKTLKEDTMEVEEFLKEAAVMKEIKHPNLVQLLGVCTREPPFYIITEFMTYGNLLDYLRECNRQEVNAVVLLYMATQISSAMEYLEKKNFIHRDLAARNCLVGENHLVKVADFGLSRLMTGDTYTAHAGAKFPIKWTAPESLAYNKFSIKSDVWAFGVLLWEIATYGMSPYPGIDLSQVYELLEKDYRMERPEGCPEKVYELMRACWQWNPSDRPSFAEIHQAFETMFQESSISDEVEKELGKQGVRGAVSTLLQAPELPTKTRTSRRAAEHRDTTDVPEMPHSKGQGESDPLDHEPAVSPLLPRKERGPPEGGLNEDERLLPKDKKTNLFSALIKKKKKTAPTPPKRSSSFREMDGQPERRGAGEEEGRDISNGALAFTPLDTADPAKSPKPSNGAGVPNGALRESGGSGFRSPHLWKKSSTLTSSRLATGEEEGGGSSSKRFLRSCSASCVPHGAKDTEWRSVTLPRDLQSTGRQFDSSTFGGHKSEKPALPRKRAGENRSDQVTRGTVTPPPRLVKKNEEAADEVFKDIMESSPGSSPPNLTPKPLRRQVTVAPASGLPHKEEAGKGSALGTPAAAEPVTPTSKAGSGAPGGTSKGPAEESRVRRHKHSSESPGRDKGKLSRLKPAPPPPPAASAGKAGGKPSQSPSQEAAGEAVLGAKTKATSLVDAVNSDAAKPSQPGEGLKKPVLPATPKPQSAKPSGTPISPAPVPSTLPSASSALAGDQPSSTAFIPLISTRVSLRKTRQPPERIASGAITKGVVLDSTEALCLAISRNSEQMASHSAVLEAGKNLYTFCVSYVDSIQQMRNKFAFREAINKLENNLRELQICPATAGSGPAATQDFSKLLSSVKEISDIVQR
UniProt P31749: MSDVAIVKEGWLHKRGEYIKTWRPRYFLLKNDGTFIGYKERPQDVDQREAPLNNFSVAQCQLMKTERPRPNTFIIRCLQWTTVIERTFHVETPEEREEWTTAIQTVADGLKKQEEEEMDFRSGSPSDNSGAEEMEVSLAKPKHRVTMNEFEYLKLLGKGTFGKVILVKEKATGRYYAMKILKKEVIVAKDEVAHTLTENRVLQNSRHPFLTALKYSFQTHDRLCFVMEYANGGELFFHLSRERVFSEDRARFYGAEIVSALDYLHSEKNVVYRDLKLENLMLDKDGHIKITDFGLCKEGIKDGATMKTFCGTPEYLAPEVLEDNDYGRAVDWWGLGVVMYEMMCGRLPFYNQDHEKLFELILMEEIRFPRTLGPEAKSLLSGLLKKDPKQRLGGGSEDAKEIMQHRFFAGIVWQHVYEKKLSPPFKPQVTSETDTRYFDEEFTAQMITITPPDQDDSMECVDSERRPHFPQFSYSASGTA

How the values were obtained:
Conditions in all cases: K562; 2-18 h
[1] = biological target: STK38 (UniProt Q15208); test: kinase-Nluc reporter destabilization hit call (1 = scored as downregulated) (binary); higher = compound decreases kinase abundance
[2] = biological target: SYK (UniProt P43405); test: as above
[3] = biological target: TEC (UniProt P42680); test: as above
[4] = biological target: TYK2 (UniProt P29597); test: as above
[5] = biological target: ULK3 (UniProt Q6PHR2); test: as above
[6] = biological target: YES1 (UniProt P07947); test: as above
[7] = biological target: ZAK (UniProt Q9NYL2); test: as above
[8] = biological target: ZAP70 (UniProt P43403); test: as above
[9] = biological target: ABL1 (UniProt P00519); test: number of time points (of 5) at which kinase-Nluc abundance scored as decreased, DMSO-normalised (count); higher = more persistent destabilization
[10] = biological target: AKT1 (UniProt P31749); test: as above

O=C1Nc2nc(-c3c(O)cccc3OCC3CC3)cc([C@@H]3CCCNC3)c2CO1 [Bay 65-1942 (hydrochloride)] (10 µM)
inactive: kinase-Nluc reporter destabilization hit call [1] 0 | kinase-Nluc reporter destabilization hit call [2] 0 | kinase-Nluc reporter destabilization hit call [3] 0 | kinase-Nluc reporter destabilization hit call [4] 0 | kinase-Nluc reporter destabilization hit call [5] 0 | kinase-Nluc reporter destabilization hit call [6] 0 | kinase-Nluc reporter destabilization hit call [7] 0 | kinase-Nluc reporter destabilization hit call [8] 0
4: number of time points [9]
0: number of time points [10]

Nc1ncnc2c1ncn2[C@@H]1O[C@H](CO)C[C@H]1O [Cordycepin] (10 µM)
inactive: kinase-Nluc reporter destabilization hit call [1] 0 | kinase-Nluc reporter destabilization hit call [2] 0 | kinase-Nluc reporter destabilization hit call [3] 0 | kinase-Nluc reporter destabilization hit call [4] 0 | kinase-Nluc reporter destabilization hit call [5] 0 | kinase-Nluc reporter destabilization hit call [6] 0 | kinase-Nluc reporter destabilization hit call [7] 0 | kinase-Nluc reporter destabilization hit call [8] 0
0: number of time points [9] | number of time points [10]

COc1cc2ncnc(Nc3cccc(Cl)c3)c2cc1OC (10 µM)
inactive: kinase-Nluc reporter destabilization hit call [1] 0 | kinase-Nluc reporter destabilization hit call [2] 0 | kinase-Nluc reporter destabilization hit call [3] 0 | kinase-Nluc reporter destabilization hit call [4] 0 | kinase-Nluc reporter destabilization hit call [5] 0 | kinase-Nluc reporter destabilization hit call [6] 0 | kinase-Nluc reporter destabilization hit call [7] 0 | kinase-Nluc reporter destabilization hit call [8] 0
0: number of time points [9] | number of time points [10]

O=C(/C=C/c1ccc(O)c(O)c1)OC1CC(OC(=O)/C=C/c2ccc(O)c(O)c2)(C(=O)O)CC(O)C1O (stereo not given) [1,3-Dicaffeoylquinic acid] (10 µM)
0: number of time points [9] | number of time points [10]
inactive: kinase-Nluc reporter destabilization hit call [1] 0 | kinase-Nluc reporter destabilization hit call [2] 0 | kinase-Nluc reporter destabilization hit call [3] 0 | kinase-Nluc reporter destabilization hit call [4] 0 | kinase-Nluc reporter destabilization hit call [5] 0 | kinase-Nluc reporter destabilization hit call [6] 0 | kinase-Nluc reporter destabilization hit call [7] 0 | kinase-Nluc reporter destabilization hit call [8] 0

Cc1ccc(-c2c(C(=O)CCl)n(CCCO)c3ncnc(N)c23)cc1 (10 µM)
3: number of time points [9]
inactive: kinase-Nluc reporter destabilization hit call [1] 0 | kinase-Nluc reporter destabilization hit call [2] 0 | kinase-Nluc reporter destabilization hit call [3] 0 | kinase-Nluc reporter destabilization hit call [4] 0 | kinase-Nluc reporter destabilization hit call [5] 0 | kinase-Nluc reporter destabilization hit call [6] 0 | kinase-Nluc reporter destabilization hit call [7] 0 | kinase-Nluc reporter destabilization hit call [8] 0
0: number of time points [10]

Reprinted from the entries so far, four compounds:
O=C1Nc2nc(-c3c(O)cccc3OCC3CC3)cc([C@@H]3CCCNC3)c2CO1 [Bay 65-1942 (hydrochloride)] (10 µM)
inactive: kinase-Nluc reporter destabilization hit call [1] 0 | kinase-Nluc reporter destabilization hit call [2] 0 | kinase-Nluc reporter destabilization hit call [3] 0 | kinase-Nluc reporter destabilization hit call [4] 0 | kinase-Nluc reporter destabilization hit call [5] 0 | kinase-Nluc reporter destabilization hit call [6] 0 | kinase-Nluc reporter destabilization hit call [7] 0 | kinase-Nluc reporter destabilization hit call [8] 0
4: number of time points [9]
0: number of time points [10]

Nc1ncnc2c1ncn2[C@@H]1O[C@H](CO)C[C@H]1O [Cordycepin] (10 µM)
inactive: kinase-Nluc reporter destabilization hit call [1] 0 | kinase-Nluc reporter destabilization hit call [2] 0 | kinase-Nluc reporter destabilization hit call [3] 0 | kinase-Nluc reporter destabilization hit call [4] 0 | kinase-Nluc reporter destabilization hit call [5] 0 | kinase-Nluc reporter destabilization hit call [6] 0 | kinase-Nluc reporter destabilization hit call [7] 0 | kinase-Nluc reporter destabilization hit call [8] 0
0: number of time points [9] | number of time points [10]

COc1cc2ncnc(Nc3cccc(Cl)c3)c2cc1OC (10 µM)
inactive: kinase-Nluc reporter destabilization hit call [1] 0 | kinase-Nluc reporter destabilization hit call [2] 0 | kinase-Nluc reporter destabilization hit call [3] 0 | kinase-Nluc reporter destabilization hit call [4] 0 | kinase-Nluc reporter destabilization hit call [5] 0 | kinase-Nluc reporter destabilization hit call [6] 0 | kinase-Nluc reporter destabilization hit call [7] 0 | kinase-Nluc reporter destabilization hit call [8] 0
0: number of time points [9] | number of time points [10]

O=C(/C=C/c1ccc(O)c(O)c1)OC1CC(OC(=O)/C=C/c2ccc(O)c(O)c2)(C(=O)O)CC(O)C1O (stereo not given) [1,3-Dicaffeoylquinic acid] (10 µM)
0: number of time points [9] | number of time points [10]
inactive: kinase-Nluc reporter destabilization hit call [1] 0 | kinase-Nluc reporter destabilization hit call [2] 0 | kinase-Nluc reporter destabilization hit call [3] 0 | kinase-Nluc reporter destabilization hit call [4] 0 | kinase-Nluc reporter destabilization hit call [5] 0 | kinase-Nluc reporter destabilization hit call [6] 0 | kinase-Nluc reporter destabilization hit call [7] 0 | kinase-Nluc reporter destabilization hit call [8] 0

More structures follow.

CNCc1ccccc1-c1csc([C@@H](C)Nc2nc(C)nc3cc(OC)c(OC)cc23)c1 (2.5 µM)
0: number of time points [9] | number of time points [10]
inactive: kinase-Nluc reporter destabilization hit call [1] 0 | kinase-Nluc reporter destabilization hit call [2] 0 | kinase-Nluc reporter destabilization hit call [3] 0 | kinase-Nluc reporter destabilization hit call [4] 0 | kinase-Nluc reporter destabilization hit call [5] 0 | kinase-Nluc reporter destabilization hit call [6] 0 | kinase-Nluc reporter destabilization hit call [7] 0 | kinase-Nluc reporter destabilization hit call [8] 0

C/C(=C1/C(=O)Nc2ccc(NC(N)=O)cc21)c1ccc[nH]1 (10 µM)
inactive: kinase-Nluc reporter destabilization hit call [1] 0 | kinase-Nluc reporter destabilization hit call [2] 0 | kinase-Nluc reporter destabilization hit call [3] 0 | kinase-Nluc reporter destabilization hit call [4] 0 | kinase-Nluc reporter destabilization hit call [5] 0 | kinase-Nluc reporter destabilization hit call [6] 0 | kinase-Nluc reporter destabilization hit call [7] 0 | kinase-Nluc reporter destabilization hit call [8] 0
0: number of time points [9] | number of time points [10]

CCc1cc(O)c(F)cc1-c1ccc2c(-c3nc4c([nH]3)CN(C3CCN(C)CC3)CC4)n[nH]c2c1 [JAK-IN-5 (hydrochloride)] (2 µM)
inactive: kinase-Nluc reporter destabilization hit call [1] 0 | kinase-Nluc reporter destabilization hit call [2] 0 | kinase-Nluc reporter destabilization hit call [3] 0 | kinase-Nluc reporter destabilization hit call [4] 0 | kinase-Nluc reporter destabilization hit call [5] 0 | kinase-Nluc reporter destabilization hit call [6] 0 | kinase-Nluc reporter destabilization hit call [7] 0 | kinase-Nluc reporter destabilization hit call [8] 0
4: number of time points [9]
0: number of time points [10]

COc1ccc(Cn2cc(C(=O)N=Nc3c(O)[nH]c4c(C)cccc34)nn2)cc1 [MARK4 inhibitor 1] (10 µM)
inactive: kinase-Nluc reporter destabilization hit call [1] 0 | kinase-Nluc reporter destabilization hit call [2] 0 | kinase-Nluc reporter destabilization hit call [3] 0 | kinase-Nluc reporter destabilization hit call [4] 0 | kinase-Nluc reporter destabilization hit call [5] 0 | kinase-Nluc reporter destabilization hit call [6] 0 | kinase-Nluc reporter destabilization hit call [7] 0 | kinase-Nluc reporter destabilization hit call [8] 0
0: number of time points [9] | number of time points [10]

O=C(/C=C/c1ccc(O)c(O)c1)c1ccc(O[C@@H]2O[C@H](CO)[C@@H](O)[C@H](O)[C@H]2O)c(O)c1O [Marein] (10 µM)
0: number of time points [9] | number of time points [10]
inactive: kinase-Nluc reporter destabilization hit call [1] 0 | kinase-Nluc reporter destabilization hit call [2] 0 | kinase-Nluc reporter destabilization hit call [3] 0 | kinase-Nluc reporter destabilization hit call [4] 0 | kinase-Nluc reporter destabilization hit call [5] 0 | kinase-Nluc reporter destabilization hit call [6] 0 | kinase-Nluc reporter destabilization hit call [7] 0 | kinase-Nluc reporter destabilization hit call [8] 0

CCOc1ccc(C(=O)Nc2ncc([N+](=O)[O-])s2)cc1 (10 µM)
0: number of time points [9] | number of time points [10]
inactive: kinase-Nluc reporter destabilization hit call [1] 0 | kinase-Nluc reporter destabilization hit call [2] 0 | kinase-Nluc reporter destabilization hit call [3] 0 | kinase-Nluc reporter destabilization hit call [4] 0 | kinase-Nluc reporter destabilization hit call [5] 0 | kinase-Nluc reporter destabilization hit call [6] 0 | kinase-Nluc reporter destabilization hit call [7] 0 | kinase-Nluc reporter destabilization hit call [8] 0

COc1ccc(Cl)cc1NC(=O)Nc1cc(C)nc2ccccc12 (2.5 µM)
0: number of time points [9] | number of time points [10]
inactive: kinase-Nluc reporter destabilization hit call [1] 0 | kinase-Nluc reporter destabilization hit call [2] 0 | kinase-Nluc reporter destabilization hit call [3] 0 | kinase-Nluc reporter destabilization hit call [4] 0 | kinase-Nluc reporter destabilization hit call [5] 0 | kinase-Nluc reporter destabilization hit call [6] 0 | kinase-Nluc reporter destabilization hit call [7] 0 | kinase-Nluc reporter destabilization hit call [8] 0

CCN(CC)S(=O)(=O)c1ccc(OC)c(N2CCN(C(=O)c3ccc(F)cc3C(F)(F)F)CC2)c1 (10 µM)
0: number of time points [9] | number of time points [10]
inactive: kinase-Nluc reporter destabilization hit call [1] 0 | kinase-Nluc reporter destabilization hit call [2] 0 | kinase-Nluc reporter destabilization hit call [3] 0 | kinase-Nluc reporter destabilization hit call [4] 0 | kinase-Nluc reporter destabilization hit call [5] 0 | kinase-Nluc reporter destabilization hit call [6] 0 | kinase-Nluc reporter destabilization hit call [7] 0 | kinase-Nluc reporter destabilization hit call [8] 0

CC1=C2C(=O)O[C@@H](c3ccoc3)[C@]2(C)CCC1 [Fraxinellone] (10 µM)
inactive: kinase-Nluc reporter destabilization hit call [1] 0 | kinase-Nluc reporter destabilization hit call [2] 0 | kinase-Nluc reporter destabilization hit call [3] 0 | kinase-Nluc reporter destabilization hit call [4] 0 | kinase-Nluc reporter destabilization hit call [5] 0 | kinase-Nluc reporter destabilization hit call [6] 0 | kinase-Nluc reporter destabilization hit call [7] 0 | kinase-Nluc reporter destabilization hit call [8] 0
0: number of time points [9] | number of time points [10]

c1cc2c(cc1O[C@H]1OC[C@H]3[C@@H]1CO[C@@H]3c1ccc3c(c1)OCO3)OCO2 [Sesamolin] (10 µM)
inactive: kinase-Nluc reporter destabilization hit call [1] 0 | kinase-Nluc reporter destabilization hit call [2] 0 | kinase-Nluc reporter destabilization hit call [3] 0 | kinase-Nluc reporter destabilization hit call [4] 0 | kinase-Nluc reporter destabilization hit call [5] 0 | kinase-Nluc reporter destabilization hit call [6] 0 | kinase-Nluc reporter destabilization hit call [7] 0 | kinase-Nluc reporter destabilization hit call [8] 0
0: number of time points [9] | number of time points [10]
